Laboratory results: PubChem BioAssay AID1224826 (NIAID, 2016)

- Aim: 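Regulators of Tlr4 signalling leading to Tnf-alpha expression in macrophages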 (primary screen)
- System: RAW264.7 G9 macrophages from mouse bearing reporters for p65 (GFP) and the Tnf promoter (mCherry)
- Knock-down reagent: siRNA pool against mouse genes, 100 nM
- Time to read-out: 16 h of LPS stimulation, after 2 days of siRNA transfection
- Conditions: bacterial lipopolysaccharide (Salmonella minnesota R595), 10 ng/ml
- Detection: 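Nuclear mCherry signal of the Tnf promoter reporter measured by imaging after background removal, scaled to each plate median and turned into robust z-scores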
- Direction: Tnf reporter robust z-score: higher = stronger Tnf promoter reporter signal after LPS; Tnf reporter intensity: higher = stronger Tnf promoter reporter signal
- Call rule: 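Called active when robust z-score is at most -1.3, matching the median of the Tlr4 knock-down control, or over 3; control wells and wells with under 50 cells never active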
- Calls: active = Tnf reporter clearly lowered or raised; inactive = no clear change in Tnf reporter
Shown is one part, drawn at random, of about 17,000 deposited reagents. About 1,110 of all reagents (6.6%) count as active. 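Active means lowered or raised reporter signal; replicate intensities are raw and not normalised per plate.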 Unmarked entries are inactive. No sequences are given here.

| gene | Tnf reporter robust z-score | fewer than 50 cells in well | Tnf reporter intensity, replicate 1 | Tnf reporter intensity, replicate 2 |
| --- | --- | --- | --- | --- |
| Zc3h13 | -0.41 | enough cells in well | 173 | 48.1 |
| Topors | -0.46 | enough cells in well | 190 | 117 |
| Ms4a10 | 1.12 | enough cells in well | 297 | 155 |
| Rab5c | 0.66 | enough cells in well | 373 | 253 |
| Taf10 | 0.27 | enough cells in well | 64 | 148 |
| Trp53inp2 | 2.93 | enough cells in well | 394 | 188 |
| Chchd7 | 0.94 | enough cells in well | 124 | 82.4 |
| Tmod2 | -0.05 | enough cells in well | 108 | 98.2 |
| Eras | 0.3 | enough cells in well | 236 | 175 |
| Snrpd3 | – | fewer than 50 cells per well; well left out of calls | 66.2 | 54.2 |
| Mylpf | -0.45 | enough cells in well | 227 | 70.6 |
| Inpp5b | – | fewer than 50 cells per well; well left out of calls | 173 | 94.9 |
| Art1 | 1.32 | enough cells in well | 241 | 248 |
| Itga4 | -0.84 | enough cells in well | 216 | 76.4 |
| Ciao2b | -0.16 | enough cells in well | 227 | 79.1 |
| Cic | -0.9 | enough cells in well | 125 | 107 |
| Tacc1 | -1.49 (active) | enough cells in well | 65.5 | 89.6 |
| Myc | 0.72 | enough cells in well | 357 | 231 |
| Sdc3 | 0.33 | enough cells in well | 189 | 95 |
| Tradd | 0.69 | enough cells in well | 295 | 269 |
| Omd | 0.96 | enough cells in well | 165 | 204 |
| Ptgs1 | 0.63 | enough cells in well | 304 | 228 |
| A930033H14Rik | 3.18 (active) | enough cells in well | 286 | 393 |
| Rtn4 | -0.56 | enough cells in well | 109 | 88.3 |
| Ewsr1 | 0.05 | enough cells in well | 234 | 233 |
| Atf6b | 0.1 | enough cells in well | 249 | 203 |
| Naa35 | -1.09 | enough cells in well | 143 | 72.9 |
| Or52z14 | 0.01 | enough cells in well | 101 | 114 |
| Nsun7 | 3.44 (active) | enough cells in well | 360 | 147 |
| Ly6g5c | 2.13 | enough cells in well | 317 | 259 |
| Elmo1 | -0.65 | enough cells in well | 157 | 203 |
| Mtmr9 | 0.95 | enough cells in well | 410 | 219 |
| Pcdhb9 | 1.59 | enough cells in well | 247 | 185 |
| A330041J22Rik | -0.45 | enough cells in well | 123 | 155 |
| Ybx3 | 0.01 | enough cells in well | 294 | 145 |
| Or1j10 | 0 | enough cells in well | 208 | 102 |
| Foxred1 | -0.54 | enough cells in well | 166 | 172 |
| Cd70 | -0.58 | enough cells in well | 253 | 66.8 |
| Pptc7 | -0.06 | enough cells in well | 142 | 169 |
| Prss39 | -1.08 | enough cells in well | 73.8 | 60.3 |
| Arf3 | 0.84 | enough cells in well | 215 | 218 |
| Tubb2a | -0.05 | enough cells in well | 217 | 236 |
| Ntrk2 | 0.22 | enough cells in well | 206 | 177 |
| Il12rb2 | -0.23 | enough cells in well | 198 | 192 |
| Or2r11 | – | fewer than 50 cells per well; well left out of calls | 70.7 | 53.9 |
| Nucb2 | 0.62 | enough cells in well | 270 | 236 |
| Trpm4 | 0.1 | enough cells in well | 232 | 245 |
| Tpsab1 | -1.07 | enough cells in well | 152 | 67.9 |
| Cadm4 | -1.25 | enough cells in well | 125 | 66.9 |
| Ccl4 | 0.07 | enough cells in well | 174 | 185 |
| Olfr908 | -0.52 | enough cells in well | 124 | 58.2 |
| Degs1 | 0.48 | enough cells in well | 244 | 265 |
| Cspg4 | 1.06 | enough cells in well | 266 | 224 |
| Or8u8 | 1.28 | enough cells in well | 221 | 169 |
| Per1 | 0.08 | enough cells in well | 238 | 194 |
| 4933427D14Rik | -1.12 | enough cells in well | 123 | 78.7 |
| Ephx1 | 1.54 | enough cells in well | 353 | 345 |
| Or52s19 | 1.26 | enough cells in well | 285 | 169 |

Reagents above with an active call:
| gene | Tnf reporter robust z-score | fewer than 50 cells in well | Tnf reporter intensity, replicate 1 | Tnf reporter intensity, replicate 2 |
| --- | --- | --- | --- | --- |
| Tacc1 | -1.49 (active) | enough cells in well | 65.5 | 89.6 |
| A930033H14Rik | 3.18 (active) | enough cells in well | 286 | 393 |
| Nsun7 | 3.44 (active) | enough cells in well | 360 | 147 |
